These are yes or no findings as the source states them, for the method shown. Binding seen in cells or lysates may run through a third protein. Binding can be weak; no strength is given.

By UniProt entry, the sequences of proteins in these tests, tags left out. Where a name states a change or a piece, a line headed by the entry shows the natural chain unless it says otherwise.
UniProt Q13838: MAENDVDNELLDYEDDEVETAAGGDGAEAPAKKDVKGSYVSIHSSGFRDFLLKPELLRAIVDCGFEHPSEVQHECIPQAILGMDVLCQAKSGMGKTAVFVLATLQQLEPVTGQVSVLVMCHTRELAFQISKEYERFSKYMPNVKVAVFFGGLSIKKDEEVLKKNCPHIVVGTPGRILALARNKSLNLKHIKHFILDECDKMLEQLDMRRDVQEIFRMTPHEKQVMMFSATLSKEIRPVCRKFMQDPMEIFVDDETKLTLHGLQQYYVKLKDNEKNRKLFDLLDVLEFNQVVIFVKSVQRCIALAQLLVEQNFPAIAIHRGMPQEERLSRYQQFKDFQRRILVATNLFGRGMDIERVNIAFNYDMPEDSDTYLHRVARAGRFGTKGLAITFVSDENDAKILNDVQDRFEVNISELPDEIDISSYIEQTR
UniProt P07711: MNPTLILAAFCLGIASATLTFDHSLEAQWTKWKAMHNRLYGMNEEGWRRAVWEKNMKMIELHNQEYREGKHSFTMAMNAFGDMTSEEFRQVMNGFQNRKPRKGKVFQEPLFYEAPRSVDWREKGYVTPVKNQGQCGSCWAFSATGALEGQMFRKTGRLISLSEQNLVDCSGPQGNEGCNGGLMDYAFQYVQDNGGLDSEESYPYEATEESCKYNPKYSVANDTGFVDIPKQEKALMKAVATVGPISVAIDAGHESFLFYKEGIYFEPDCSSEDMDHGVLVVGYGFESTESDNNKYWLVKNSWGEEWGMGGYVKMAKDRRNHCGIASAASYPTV

In this test the target is Strep-HA-tagged DDX39B (human) (UniProt Q13838). In words: co-IP.

In the case of “V5-tagged CTSL (from UniProt P07711) (enzyme)”, the binding entry is “binds”.

These data come from publication PMC8552907.
